Some of these results come from one statement about several compounds together. Some ranges recur; such a range may be that of the whole group of compounds.
Target: T1, PDE4B (Homo sapiens, UniProt Q07343)
T1 construct: expressed in transfected cells; host or cells: HEK293
Experiment: PDE 4 enzyme assay (lysate of HEK293 cells transfected with PDE4B2 plasmids, cAMP ELISA)
Assay type: biochemical
Conditions: cAMP 1 μM, 30° C., 45-60 min; units printed within the range (nM to μM)

Protein sequences, listed by entry. Tags and fused reporters are not part of them. Residues count along the entry.
UniProt Q07343, 1-564 isoform Q07343-2, species assumed: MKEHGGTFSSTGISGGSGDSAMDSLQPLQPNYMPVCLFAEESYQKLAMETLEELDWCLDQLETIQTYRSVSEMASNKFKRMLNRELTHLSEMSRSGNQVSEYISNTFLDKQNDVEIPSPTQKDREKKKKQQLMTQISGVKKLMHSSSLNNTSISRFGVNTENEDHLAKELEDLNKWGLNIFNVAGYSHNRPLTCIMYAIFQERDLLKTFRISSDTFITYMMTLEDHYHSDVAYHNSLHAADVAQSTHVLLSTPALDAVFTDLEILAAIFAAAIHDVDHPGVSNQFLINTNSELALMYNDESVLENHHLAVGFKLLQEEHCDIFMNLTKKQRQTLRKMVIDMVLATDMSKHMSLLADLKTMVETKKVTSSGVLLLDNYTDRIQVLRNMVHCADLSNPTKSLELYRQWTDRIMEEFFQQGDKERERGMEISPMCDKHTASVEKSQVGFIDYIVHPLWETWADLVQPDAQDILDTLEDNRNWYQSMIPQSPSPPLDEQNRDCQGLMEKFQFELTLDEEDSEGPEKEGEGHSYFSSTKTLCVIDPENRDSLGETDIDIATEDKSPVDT

IC50, 140 to 10000 nM:
COc1ccc(-c2ccc(-n3c(=O)n(C(=O)Nc4ccc(Br)cc4)c4ccccc43)nc2)cc1OC1CCCC1 [Compound No. 53, N-(4-bromophenyl)-3-{5-[3-(cyclopentyloxy)-4-methoxyphenyl]pyridin-2-yl}-2-oxo-2,3-dihydro-1H-benzimidazole-1-carboxamide]
CCn1c(=O)n(-c2ccc(-c3ccc(OC)c(OC4CCCC4)c3)cn2)c2ccccc21 [Compound No. 19, 1-{5-[3-(Cyclopentyloxy)-4-methoxyphenyl]pyridin-2-yl}-3-ethyl-1,3-dihydro-2H-benzimidazol-2-one]
COc1ccc(-c2cnc(-n3c(=O)n(C4CCCC4)c4ccccc43)nc2)cc1OC1CCCC1 [Compound No. 29, 1-Cyclopentyl-3-{5-[3-(cyclopentyloxy)-4-methoxyphenyl]pyrimidin-2-yl}-1,3-dihydro-2H-benzimidazol-2-one]
COc1ccc(-c2ccc(-n3c(=O)n(C(=O)NCc4ccccc4)c4ccccc43)nc2)cc1OC1CCCC1 [Compound No. 48, N-benzyl-3-{5-[3-(cyclopentyloxy)-4-methoxyphenyl]pyridin-2-yl}-2-oxo-2,3-dihydro-1H-benzimidazole-1-carboxamide]
COc1ccc(OC)c(-c2cnc(-n3c(=O)n(C(=O)OC(C)(C)C)c4ccccc43)nc2)c1 [Compound No. 5, tert-Butyl 3-[5-(2,5-dimethoxyphenyl)pyrimidin-2-yl]-2-oxo-2,3-dihydro-1H-benzimidazole-1-carboxylate]
COc1ccc(-c2ccc(-n3c(=O)n(Cc4ccccc4)c4ccccc43)nc2)cc1OC1CCCC1 [Compound No. 18, 1-Benzyl-3-{5-[3-(cyclopentyloxy)-4-methoxyphenyl]pyridin-2-yl}-1,3-dihydro-2H-benzimidazol-2-one]
COc1ccc(-c2cnc(-n3c(=O)n(C(=O)NC4CCCC4)c4ccccc43)nc2)cc1OC1CCCC1 [Compound No. 28, N-Cyclopentyl-3-{5-[3-(cyclopentyloxy)-4-methoxyphenyl]pyrimidin-2-yl}-2-oxo-2,3-dihydro-1H-benzimidazole-1-carboxamide]
COc1ccc(-c2cnc(-n3c(=O)n(C(C)=O)c4ccccc43)nc2)cc1OC1CCCC1 [Compound No. 33, 1-Acetyl-3-{5-[3-(cyclopentyloxy)-4-methoxyphenyl]pyrimidin-2-yl}-1,3-dihydro-2H-benzimidazol-2-one]
COc1ccc(-c2cnc(-n3c(=O)n(C(=O)NC(C)C)c4ccccc43)nc2)cc1OC1CCCC1 [Compound No. 26, 3-{5-[3-(Cyclopentyloxy)-4-methoxyphenyl]pyrimidin-2-yl}-N-isopropyl-2-oxo-2,3-dihydro-1H-benzimidazole-1-carboxamide]
CCCC(=O)n1c(=O)n(-c2ncc(-c3ccc(OC)c(OC4CCCC4)c3)cn2)c2ccccc21 [Compound No. 35, 1-Butanoyl-3-{5-[3-(cyclopentyloxy)-4-methoxyphenyl]pyrimidin-2-yl}-1,3-dihydro-2H-benzimidazol-2-one]
C=CCn1c(=O)n(-c2ccc(-c3ccc(OC)c(OC4CCCC4)c3)cn2)c2ccccc21 [Compound No. 17, 1-Allyl-3-{5-[3-(cyclopentyloxy)-4-methoxyphenyl]pyridin-2-yl}-1,3-dihydro-2H-benzimidazol-2-one]
CCCC(=O)n1c(=O)n(-c2ccc(-c3ccc(OC)c(OC4CCCC4)c3)cn2)c2ccccc21 [Compound No. 41, 1-Butanoyl-3-{5-[3-(cyclopentyloxy)-4-methoxyphenyl]pyridin-2-yl}-1,3-dihydro-2H-benzimidazol-2-one]
CCCCCNC(=O)n1c(=O)n(-c2ccc(-c3ccc(OC)c(OC4CCCC4)c3)cn2)c2ccccc21 [Compound No. 49, 3-{5-[3-(Cyclopentyloxy)-4-methoxyphenyl]pyridin-2-yl}-2-oxo-N-pentyl-2,3-dihydro-1H-benzimidazole-1-carboxamide]
COc1ccc(-c2ccc(-n3c(=O)n(C4CCCC4)c4ccccc43)nc2)cc1OC1CCCC1 [Compound No. 22, 1-Cyclopentyl-3-{5-[3-(cyclopentyloxy)-4-methoxyphenyl]pyridin-2-yl}-1,3-dihydro-2H-benzimidazol-2-one]
CCC(=O)n1c(=O)n(-c2ncc(-c3ccc(OC)c(OC4CCCC4)c3)cn2)c2ccccc21 [Compound No. 34, 1-{5-[3-(Cyclopentyloxy)-4-methoxyphenyl]pyrimidin-2-yl}-3-propanoyl-1,3-dihydro-2H-benzimidazol-2-one]
COc1ccc(-c2ccnc(-n3c(=O)n(C4CCCC4)c4ccccc43)n2)cc1OC [Compound No. 13, 1-Cyclopentyl-3-[4-(3,4-dimethoxyphenyl)pyrimidin-2-yl]-1,3-dihydro-2H-benzimidazol-2-one]
COc1ccc(-c2ccc(-n3c(=O)n(C(=O)NC4CCCC4)c4ccccc43)nc2)cc1OC1CCCC1 [Compound No. 50, N-cyclopentyl-3-{5-[3-(cyclopentyloxy)-4-methoxyphenyl]pyridin-2-yl}-2-oxo-2,3-dihydro-1H-benzimidazole-1-carboxamide]
COc1ccc(-c2ccnc(-n3c(=O)n(C(F)F)c4ccccc43)n2)cc1OC [Compound No. 11, 1-(Difluoromethyl)-3-[4-(3,4-dimethoxyphenyl)pyrimidin-2-yl]-1,3-dihydro-2H-benzimidazol-2-one]
COc1ccc(-c2ccc(-n3c(=O)n(C(=O)Nc4ccc(C)cc4)c4ccccc43)nc2)cc1OC1CCCC1 [Compound No. 52, 3-{5-[3-(Cyclopentyloxy)-4-methoxyphenyl]pyridin-2-yl}-N-(4-methylphenyl)-2-oxo-2,3-dihydro-1H-benzimidazole-1-carboxamide]
C=CCNC(=O)n1c(=O)n(-c2ccc(-c3ccc(OC)c(OC4CCCC4)c3)cn2)c2ccccc21 [Compound No. 47, 3-{5-[3-(Cyclopentyloxy)-4-methoxyphenyl]pyridin-2-yl}-2-oxo-N-prop-2-en-1-yl-2,3-dihydro-1H-benzimidazole-1-carboxamide]
COc1ccc(-c2cnc(-n3c(=O)[nH]c4ccccc43)nc2)cc1OC [Compound No. 7, 1-[5-(3,4-Dimethoxyphenyl)pyrimidin-2-yl]-1,3-dihydro-2H-benzimidazol-2-one]
COc1ccc(-c2ccc(-n3c(=O)n(C(=O)OC(C)(C)C)c4ccccc43)nc2)cc1OC1CCCC1 [Compound No. 15, tert-Butyl-3-{5-[3-(cyclopentyloxy)-4-methoxyphenyl]pyridin-2-yl}-2-oxo-2,3-dihydro-1H-benzimidazole-1-carboxylate]
COc1ccc(-c2cnc(-n3c(=O)n(C(=O)OC(C)(C)C)c4ccccc43)nc2)cc1OC [Compound No. 4, tert-Butyl 3-[5-(3,4-dimethoxyphenyl)pyrimidin-2-yl]-2-oxo-2,3-dihydro-1H-benzimidazole-1-carboxylate]
COc1ccc(-c2ccc(-n3c(=O)n(Cc4ccc(C(F)(F)F)cc4)c4ccccc43)nc2)cc1OC1CCCC1 [Compound No. 31, 1-{5-[3-(Cyclopentyloxy)-4-methoxyphenyl]pyridin-2-yl}-3-[4-(trifluoromethyl)benzyl]-1,3-dihydro-2H-benzimidazol-2-one]
COc1ccc(-c2ccc(-n3c(=O)n(C(C)=O)c4ccccc43)nc2)cc1OC1CCCC1 [Compound No. 42, 1-Acetyl-3-{5-[3-(cyclopentyloxy)-4-methoxyphenyl]pyridin-2-yl}-1,3-dihydro-2H-benzimidazol-2-one]
COc1ccc(OC)c(-c2cnc(-n3c(=O)[nH]c4ccccc43)nc2)c1 [Compound No. 8, 1-[5-(2,5-Dimethoxyphenyl)pyrimidin-2-yl]-1,3-dihydro-2H-benzimidazol-2-one]
COc1ccc(-c2cnc(-n3c(=O)n(C(=O)OC(C)(C)C)c4ccccc43)nc2)cc1OC1CCCC1 [Compound No. 3, tert-Butyl 3-{5-[3-(cyclopentyloxy)-4-methoxyphenyl]pyrimidin-2-yl}-2-oxo-2,3-dihydro-1H-benzimidazole-1-carboxylate]
COc1ccc(-c2ccnc(-n3c(=O)n(C(=O)OC(C)(C)C)c4ccccc43)n2)cc1OC [Compound No. 6, tert-Butyl 3-[4-(3,4-dimethoxyphenyl)pyrimidin-2-yl]-2-oxo-2,3-dihydro-1H-benzimidazole-1-carboxylate]
CCC(=O)n1c(=O)n(-c2ccc(-c3ccc(OC)c(OC4CCCC4)c3)cn2)c2ccccc21 [Compound No. 40, 1-{5-[3-(Cyclopentyloxy)-4-methoxyphenyl]pyridin-2-yl}-3-propanoyl-1,3-dihydro-2H-benzimidazol-2-one]
COc1ccc(-c2ccnc(-n3c(=O)n(C(=O)NC(C)C)c4ccccc43)n2)cc1OC1CCCC1 [Compound No. 27, 3-{4-[3-(Cyclopentyloxy)-4-methoxyphenyl]pyrimidin-2-yl}-N-isopropyl-2-oxo-2,3-dihydro-1H-benzimidazole-1-carboxamide]
COc1ccc(-c2ccnc(-n3c(=O)n(Cc4ccccc4)c4ccccc43)n2)cc1OC [Compound No. 14, 1-Benzyl-3-[4-(3,4-dimethoxyphenyl)pyrimidin-2-yl]-1,3-dihydro-2H-benzimidazol-2-one]
COc1ccc(-c2cnc(-n3c(=O)n(C(=O)C(C)C)c4ccccc43)nc2)cc1OC1CCCC1 [Compound No. 36, 1-{5-[3-(Cyclopentyloxy)-4-methoxyphenyl]pyrimidin-2-yl}-3-(2-methylpropanoyl)-1,3-dihydro-2H-benzimidazol-2-one]
COc1ccc(-c2cnc(-n3c(=O)n(C(=O)C(C)(C)C)c4ccccc43)nc2)cc1OC1CCCC1 [Compound No. 38, 1-{5-[3-(Cyclopentyloxy)-4-methoxyphenyl]pyrimidin-2-yl}-3-(2,2-dimethylpropanoyl)-1,3-dihydro-2H-benzimidazol-2-one]

— US20080207659A1, “INHIBITORS OF PHOSPHODIESTERASE TYPE 4” (priority 2007, published 2008)
